Values quoted from earlier work in paper PMC10450579, “A biophysical framework for double-drugging kinases” (Proceedings of the National Academy of Sciences of the …, 2023).

Molecular target: Abl allosteric site
Details: binding to allosteric site; cited from earlier work

## Cc1ccc(NC(=O)c2ccc(CN3CCN(C)CC3)cc2)cc1Nc1nccc(-c2cccnc2)n1 [imatinib]
  Kd: > 10 µM
